The list shows a part of the results. The main result of the screen is listed elsewhere. These columns were measured beside it and carry no call. Compounds called inactive in the main read-out are mostly missing here. The note in brackets gives the kind of curve behind each potency; many fits are weak.
Test: qHTS Assay for Lipid Storage Modulators in Drosophila S3 Cells;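 for cell number change: cells counted by Cell Tracker Red CMTPX staining in the red channel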
Settings: BODIPY lipid droplet fluorescence, 18-24 h; for cell number change: measured here: cell count max response, cells fed with added oleic acid
Procedure, shortened: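 Laser-scanning cytometry quantifies lipid droplet accumulation (500–530 nm total intensity; droplet/cell object ratio) in oleic acid-fed (400 uM added) Drosophila S3 cells treated with a concentration series. 20 uM Triacsin C defined 100% inhibition.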

[1] = measured here: lipid fluorescence (Fed channel) AC50, cells fed with added oleic acid
[2] = measured here: cell number channel AC50, cells fed with added oleic acid

Row | SMILES | cell number change [%] | AC50 [1] | AC50 [2]
1 | CC(=O)c1ccc(C(=O)N2CCCC(C(=O)c3ccc(Cl)cc3)C2)s1 (stereo not drawn) | -8.65 | 29.1 µM [falling, single point] | 
2 | COCCOC(=O)c1c(C)oc2ccc(OCc3cc(C(=O)OC)oc3C)cc12 | -2.69 | 4.61 µM [rising, full curve, poor fit] | 
3 | O=C(c1cccc(C(F)(F)F)c1)N1CCCCCC1 | -92.2 | 20.6 µM [falling, partial curve] | 25.9 µM [falling, partial curve, poor fit]
4 | O=Cc1ccc2cccnc2n1 | -29 | 29.1 µM [falling, single point] | 
5 | NC(=O)[C@@H]1CC2(CC(c3cccc(NC(=O)COc4ccc(Cl)cc4)c3)=NO2)CN1C(=O)COc1ccc(Cl)cc1 (stereo partly drawn) | -16.5 | 13 µM [falling, partial curve, poor fit] | 
6 | Nc1[nH]c(N=NC(=O)c2ccc(Cl)cc2)c2ccccc12 | 8.8 | 0.116 µM [rising, full curve, poor fit] | 
7 | Cc1nn2c(CN(C(=O)COc3ccccc3)c3ccccc3)nnc2c2ccccc12 | 14.1 | 1.16 µM [falling, single point] | 
8 | O=c1c(-c2cccc([N+](=O)[O-])c2)[n+]([O-])c2ccccc2n1O | 20.6 | 29.1 µM [rising, single point] | 
9 | CCCCOc1ccc(CONS(=O)(=O)c2ccc(NC(C)=O)cc2)cc1Cl | 4.5 | 6.51 µM [rising, single point] | 
10 | CCn1cc(C(=O)N2CCCC2)c(=O)c2cc(S(=O)(=O)N(C)C)ccc21 | -45.7 | 0.0164 µM [falling, full curve, poor fit] | 0.146 µM [falling, full curve]
11 | Cc1ccc(-c2csc(NC(=O)CCNC(=O)c3ccc(Cl)cc3)n2)cc1 | -10.2 |  | 
12 | O=C(C1CCCN(S(=O)(=O)c2ccccc2)C1)N1CCCCC1 (stereo not drawn) | 21.8 |  | 
13 | COc1cnn(-c2ccc(C)cc2)c(=O)c1Cl | -11 |  | 6.51 µM [rising, single point]
14 | O=C(Nc1ccc([N+](=O)[O-])cc1)c1cn(-c2ccccc2)nc1-c1cc2ccccc2o1 | -37.3 | 5.17 µM [falling, full curve] | 7.31 µM [falling, partial curve, poor fit]
15 | COc1ccc(OCCn2cncn2)cc1 | 6.2 | 3.66 µM [falling, partial curve] | 
16 | CC1CC2=C(CC1/C=N/NC(N)=S)C(C)(C)CCC2 (stereo not drawn) | -14.5 | 0.517 µM [rising, full curve] | 0.82 µM [rising, partial curve]
17 | Cc1nn(Cc2ccccc2Cl)c(C)c1NC(=O)c1cc(-c2ccc(F)cc2)on1 |  | 0.291 µM [rising, partial curve, poor fit] | 0.116 µM [rising, partial curve, poor fit]
18 | CCOc1ccc(CN(C(=O)c2cccs2)C2CCS(=O)(=O)C2)cc1 (stereo not drawn) | -36.1 |  | 29.1 µM [falling, single point]

Row | SMILES | cell number change [%] | AC50 [1] | AC50 [2]
19 | CCOCCOc1cccc(C(=O)NC(C)c2ccc3ccccc3c2)c1 (stereo not drawn) |  | 20.6 µM [falling, single point] | 
20 | Cc1ccc(SCCN2CCC(C(C)(C)C)CCC2=O)cc1 (stereo not drawn) | -8.74 |  | 
21 | COc1cccc(NC(=O)COc2cccc(-n3cnnn3)c2)c1 | -8.44 | 0.0259 µM [falling, full curve, poor fit] | 0.0326 µM [falling, full curve, poor fit]
22 | Cc1nc(C)c(-c2nnc(-c3ccc(C(C)(C)C)cc3)o2)cc1C(=O)NN | 51.5 | 29.1 µM [rising, single point] | 29.1 µM [rising, single point]
23 | COc1ccccc1CC(=O)NNC(=O)c1ccc(C(C)(C)C)cc1 | 24 |  | 
24 | Cc1cc(NC(=O)CCN2CCCCC2)ccc1Br | 23.5 |  | 
25 | Cc1cc(=O)[nH]c(SCC(=O)Nc2cccc(S(=O)(=O)N3CCOCC3)c2)n1 | 8.84 | 0.517 µM [rising, full curve] | 
26 | CC(=O)Oc1ccc2oc(/C=C/N(C)C)c([N+](=O)[O-])c2c1 | -11.4 | 1.3 µM [rising, full curve] | 0.82 µM [rising, full curve]
27 | Cc1ccc2nc(Cl)c(/C=N/NC(=O)[C@H]3C[C@@H]3c3ccccc3)cc2c1 | 21.7 | 0.259 µM [rising, full curve, poor fit] | 1.03 µM [rising, full curve, poor fit]
28 | CC1CCCN(C(=O)COc2ccc(-c3ccccc3)cc2)C1 (stereo not drawn) |  | 6.51 µM [rising, single point] | 6.51 µM [rising, single point]
29 | CCc1ccc2[nH]c(=O)c(CN(Cc3ccc(OC)cc3)Cc3nnnn3CCOC)cc2c1 | 19.5 | 4.61 µM [rising, full curve] | 0.082 µM [rising, full curve, poor fit]
30 | Cc1ccc(C(C)C)c(OCCn2c(=O)oc3ccccc32)c1 | -54.3 | 0.58 µM [rising, partial curve, poor fit] | 
31 | Cc1ccc(N=Nc2ccc(O)cc2)c(Br)c1 | -46.8 |  | 23.1 µM [falling, single point]
32 | O=C(COC(=O)c1cc([N+](=O)[O-])ccc1NCCO)Nc1ccc2c(c1)OCO2 | -51 |  | 
33 | CCC(C(=O)NC1CCCC1)N(Cc1ccco1)C(=O)CNS(=O)(=O)c1ccccc1 (stereo not drawn) | -10.1 | 6.51 µM [rising, single point] | 
34 | O=C(CSc1nnc(-c2c[nH]c3ccccc23)n1CC1CCCO1)Nc1ccc2c(c1)OCCO2 (stereo not drawn) |  | 3.66 µM [rising, partial curve] | 
35 | CC(C)(C)C(=O)Nc1nc(C2CCCN2S(=O)(=O)c2ccc(Cl)cc2)cs1 (stereo not drawn) | 60.8 | 29.1 µM [rising, single point] | 18.4 µM [rising, single point]
36 | CCN(CC)S(=O)(=O)c1cccc(NC(=O)CC2CCCC2)c1 | 12.8 |  | 

As entered above:
Under cell number change [%], Cc1cc(=O)[nH]c(SCC(=O)Nc2cccc(S(=O)(=O)N3CCOCC3)c2)n1 shows 8.84
Under cell number change [%], CCN(CC)S(=O)(=O)c1cccc(NC(=O)CC2CCCC2)c1 shows 12.8
